Source: US20240390512A1, “METHODS OF TREATING CHEMOTHERAPY-RESISTANT CANCER WITH AN ANTIBODY-DRUG CONJUGATE” (DAIICHI SANKYO COMPANY, LIMITED, priority 2021, published 2024)
No constants are given. Whether binding was seen depends on the method and setting. Some binding calls cover weakened binding; strength is not graded here.

Experiments:
[1] = target: T1, EC1 deletion mutant of human CDH6, on cells (human) (UniProt P55285); assay: flow cytometry, transfected 293α cells
T1 sequence: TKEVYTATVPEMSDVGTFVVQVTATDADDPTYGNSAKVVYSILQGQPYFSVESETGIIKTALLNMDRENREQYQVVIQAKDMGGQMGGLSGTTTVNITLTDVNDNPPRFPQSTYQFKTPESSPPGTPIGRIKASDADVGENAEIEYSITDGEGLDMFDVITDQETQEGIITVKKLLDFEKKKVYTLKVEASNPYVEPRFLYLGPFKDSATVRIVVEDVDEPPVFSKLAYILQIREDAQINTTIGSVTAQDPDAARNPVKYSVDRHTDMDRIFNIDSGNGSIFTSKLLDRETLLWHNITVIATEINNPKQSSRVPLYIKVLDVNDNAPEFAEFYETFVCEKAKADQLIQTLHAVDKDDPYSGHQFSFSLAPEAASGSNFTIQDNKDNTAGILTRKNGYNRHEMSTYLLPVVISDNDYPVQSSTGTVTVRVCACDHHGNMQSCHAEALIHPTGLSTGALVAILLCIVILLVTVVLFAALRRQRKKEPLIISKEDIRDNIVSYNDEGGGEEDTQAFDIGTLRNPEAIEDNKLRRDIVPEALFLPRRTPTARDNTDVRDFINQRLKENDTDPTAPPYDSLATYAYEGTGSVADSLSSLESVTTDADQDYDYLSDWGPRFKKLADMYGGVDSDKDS

[2] = target: T2, EC2 deletion mutant of human CDH6, on cells (human) (UniProt P55285); assay: flow cytometry, transfected 293α cells
T2 sequence: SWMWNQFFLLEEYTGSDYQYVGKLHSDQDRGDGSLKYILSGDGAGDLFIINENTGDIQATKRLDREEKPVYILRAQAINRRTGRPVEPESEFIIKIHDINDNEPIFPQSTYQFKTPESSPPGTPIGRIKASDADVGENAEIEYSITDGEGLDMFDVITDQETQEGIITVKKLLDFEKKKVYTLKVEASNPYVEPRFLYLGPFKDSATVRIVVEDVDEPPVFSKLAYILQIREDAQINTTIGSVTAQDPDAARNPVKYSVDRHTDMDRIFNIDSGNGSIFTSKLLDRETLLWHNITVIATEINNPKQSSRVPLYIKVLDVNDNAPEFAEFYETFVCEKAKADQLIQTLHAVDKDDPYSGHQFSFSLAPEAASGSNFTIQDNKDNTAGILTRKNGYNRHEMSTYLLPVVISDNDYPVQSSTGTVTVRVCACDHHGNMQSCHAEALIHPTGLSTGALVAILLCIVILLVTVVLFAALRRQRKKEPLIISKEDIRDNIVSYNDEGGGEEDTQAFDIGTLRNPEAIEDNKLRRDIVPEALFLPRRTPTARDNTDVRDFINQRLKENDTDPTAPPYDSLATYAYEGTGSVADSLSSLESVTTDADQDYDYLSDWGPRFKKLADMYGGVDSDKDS

[3] = target: T3, EC4 deletion mutant of human CDH6, on cells (human) (UniProt P55285); assay: flow cytometry, transfected 293α cells
T3 sequence: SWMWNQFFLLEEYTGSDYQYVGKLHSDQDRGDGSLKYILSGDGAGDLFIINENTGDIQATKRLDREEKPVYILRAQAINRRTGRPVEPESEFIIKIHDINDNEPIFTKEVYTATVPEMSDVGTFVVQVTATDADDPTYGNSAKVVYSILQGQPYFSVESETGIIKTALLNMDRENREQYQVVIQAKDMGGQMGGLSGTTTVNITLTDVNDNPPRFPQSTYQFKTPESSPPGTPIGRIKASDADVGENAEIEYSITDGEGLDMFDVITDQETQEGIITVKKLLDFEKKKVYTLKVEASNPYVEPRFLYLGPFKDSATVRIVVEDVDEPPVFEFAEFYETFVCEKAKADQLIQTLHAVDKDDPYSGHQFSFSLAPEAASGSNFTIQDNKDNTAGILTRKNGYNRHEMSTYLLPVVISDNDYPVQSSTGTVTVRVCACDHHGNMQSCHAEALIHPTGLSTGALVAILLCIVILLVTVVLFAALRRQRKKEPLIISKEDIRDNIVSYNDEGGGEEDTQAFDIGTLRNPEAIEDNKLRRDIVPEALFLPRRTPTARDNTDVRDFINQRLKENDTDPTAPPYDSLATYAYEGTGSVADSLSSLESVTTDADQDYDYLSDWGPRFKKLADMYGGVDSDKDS

[4] = target: T4, EC5 deletion mutant of human CDH6, on cells (human) (UniProt P55285); assay: flow cytometry, transfected 293α cells
T4 sequence: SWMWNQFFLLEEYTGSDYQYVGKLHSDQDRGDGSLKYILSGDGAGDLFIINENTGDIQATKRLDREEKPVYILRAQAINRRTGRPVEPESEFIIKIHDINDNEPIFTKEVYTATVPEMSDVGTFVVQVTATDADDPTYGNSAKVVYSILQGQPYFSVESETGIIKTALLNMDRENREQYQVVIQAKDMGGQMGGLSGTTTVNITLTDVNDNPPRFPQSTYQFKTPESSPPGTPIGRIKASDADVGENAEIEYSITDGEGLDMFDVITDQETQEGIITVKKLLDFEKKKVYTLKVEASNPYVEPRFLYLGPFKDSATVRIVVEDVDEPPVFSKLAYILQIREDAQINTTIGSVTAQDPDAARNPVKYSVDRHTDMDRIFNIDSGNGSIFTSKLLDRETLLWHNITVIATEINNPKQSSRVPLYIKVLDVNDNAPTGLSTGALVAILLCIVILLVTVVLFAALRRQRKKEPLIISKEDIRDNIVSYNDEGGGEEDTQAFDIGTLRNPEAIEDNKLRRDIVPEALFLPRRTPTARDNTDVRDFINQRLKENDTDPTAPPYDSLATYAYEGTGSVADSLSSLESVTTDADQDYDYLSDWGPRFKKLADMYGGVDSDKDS

[5] = target: T1, EC1 deletion mutant of human CDH6, on cells (human); assay: flow cytometry; 293α cells transfected with EC1-deleted hCDH6 (open line) against untransfected 293α cells (shaded); APC anti-human IgG goat F(ab')2; antibody concentration not given
[6] = target: T2, EC2 deletion mutant of human CDH6, on cells (human); assay: flow cytometry; 293α cells transfected with EC2-deleted hCDH6 (open line) against untransfected 293α cells (shaded); APC anti-human IgG goat F(ab')2; antibody concentration not given
[7] = target: T3, EC4 deletion mutant of human CDH6, on cells (human); assay: flow cytometry; 293α cells transfected with EC4-deleted hCDH6 (open line) against untransfected 293α cells (shaded); APC anti-human IgG goat F(ab')2; antibody concentration not given
[8] = target: T4, EC5 deletion mutant of human CDH6, on cells (human); assay: flow cytometry; 293α cells transfected with EC5-deleted hCDH6 (open line) against untransfected 293α cells (shaded); APC anti-human IgG goat F(ab')2; antibody concentration not given
[9] = target: T5, EC3 deletion mutant of human CDH6, on cells (human) (UniProt P55285); assay: flow cytometry, transfected 293α cells
T5 sequence: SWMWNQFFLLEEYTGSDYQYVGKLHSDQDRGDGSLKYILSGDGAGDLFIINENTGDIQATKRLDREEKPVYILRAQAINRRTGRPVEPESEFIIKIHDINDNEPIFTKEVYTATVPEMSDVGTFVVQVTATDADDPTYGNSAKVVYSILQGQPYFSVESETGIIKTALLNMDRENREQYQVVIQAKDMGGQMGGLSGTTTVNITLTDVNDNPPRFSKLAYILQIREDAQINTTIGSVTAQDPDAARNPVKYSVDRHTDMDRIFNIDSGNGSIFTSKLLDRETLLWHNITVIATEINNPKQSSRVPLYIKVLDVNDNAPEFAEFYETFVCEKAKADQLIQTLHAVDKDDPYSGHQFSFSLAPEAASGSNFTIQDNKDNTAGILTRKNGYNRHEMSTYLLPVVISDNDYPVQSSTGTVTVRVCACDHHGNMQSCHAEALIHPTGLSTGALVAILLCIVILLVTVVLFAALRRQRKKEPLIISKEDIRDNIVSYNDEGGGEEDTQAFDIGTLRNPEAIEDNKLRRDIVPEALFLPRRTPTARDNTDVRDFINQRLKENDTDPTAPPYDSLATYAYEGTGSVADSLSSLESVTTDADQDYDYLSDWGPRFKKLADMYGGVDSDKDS

[10] = target: T5, EC3 deletion mutant of human CDH6, on cells (human); assay: flow cytometry; 293α cells transfected with EC3-deleted hCDH6 (open line) against untransfected 293α cells (shaded); APC anti-human IgG goat F(ab')2; antibody concentration not given

Measured: binding

B1: humanized anti-CDH6 antibody H02L02 (antibody, human IgG1, kappa, V domains shown)
VH: EVQLVQSGAEVKKPGASVKVSCKASGYTFTRNFMHWVRQAPGQGLEWMGWIYPGDGETEYNQKFQGRVTITADRSTSTAYMELSSLRSEDTAVYFCARGVYGGFAGGYFDFWGQGTLVTVSS
VL: DIQMTQSPSSLSASVGDRVTITCKASQNIYKNLAWYQQKPGKAPKLLIYDANTLQTGVPSRFSGSGSGSDFTLTISSLQPEDFATYFCQQYYSGWAFGQGTKVEIKR
binds: [1] | [2] | [3] | [4] | [5] | [6] | [7] | [8]

B2: humanized anti-CDH6 antibody H04L02 (antibody, human IgG1, kappa, V domains shown)
VH: QVQLVQSGAEVKKPGASVKVSCKASGYTFTRNFMHWIRQAPGQGLEWMGWIYPGDGETEYAQKFQGRVTLTADRSTSTAYMELSSLRSEDTAVYYCARGVYGGFAGGYFDFWGQGTLVTVSS
VL: DIQMTQSPSSLSASVGDRVTITCKASQNIYKNLAWYQQKPGKAPKLLIYDANTLQTGVPSRFSGSGSGSDFTLTISSLQPEDFATYFCQQYYSGWAFGQGTKVEIKR
binds: [1] | [2] | [3] | [4] | [5] | [6] | [7] | [8]

B3: humanized anti-CDH6 antibody H02L03 (antibody, human IgG1, kappa, V domains shown)
VH: EVQLVQSGAEVKKPGASVKVSCKASGYTFTRNFMHWVRQAPGQGLEWMGWIYPGDGETEYNQKFQGRVTITADRSTSTAYMELSSLRSEDTAVYFCARGVYGGFAGGYFDFWGQGTLVTVSS
VL: DIQMTQSPSSLSASVGDRVTITCKASQNIYKNLAWYQQKLGEGPKLLIYDANTLQTGVPSRFSGSGSGTDFTLTISSLQPEDFATYYCQQYYSGWAFGQGTKVEIKR
binds: [1] | [2] | [3] | [4] | [5] | [6] | [7] | [8]

B4: anti-CDH6 antibody NOV0712 (antibody, human IgG1, kappa, V domains shown)
VH: QVQLLESGGGLVQPGGSLRLSCAASGFTFSSHGMHWVRQAPGKGLEWVSVISGSGSNTGYADSVKGRFTISRDNSKNTLYLQMNSLRAEDTAVYYCARQWGSYAFDSWGQGTLVTVSS
VL: DIQMTQSPSSLSASVGDRVTITCRASQSISSYLNWYQQKPGKAPKLLIYAVSTLQSGVPSRFSGSGSGTDFTLTISSLQPEDFATYYCQQSGTFPPTTFGQGTKVEIKR
binds: [1] | [2] | [9] | [3] | [5] | [6] | [10] | [7]
